Test results reported in the supplement of paper PMC10849652.
This is one part of the list.

The chains behind the UniProt entries cited, without tags or fusion partners. Where a name states a change or a piece, a line headed by the entry shows the natural chain unless it says otherwise.
UniProt Q92636: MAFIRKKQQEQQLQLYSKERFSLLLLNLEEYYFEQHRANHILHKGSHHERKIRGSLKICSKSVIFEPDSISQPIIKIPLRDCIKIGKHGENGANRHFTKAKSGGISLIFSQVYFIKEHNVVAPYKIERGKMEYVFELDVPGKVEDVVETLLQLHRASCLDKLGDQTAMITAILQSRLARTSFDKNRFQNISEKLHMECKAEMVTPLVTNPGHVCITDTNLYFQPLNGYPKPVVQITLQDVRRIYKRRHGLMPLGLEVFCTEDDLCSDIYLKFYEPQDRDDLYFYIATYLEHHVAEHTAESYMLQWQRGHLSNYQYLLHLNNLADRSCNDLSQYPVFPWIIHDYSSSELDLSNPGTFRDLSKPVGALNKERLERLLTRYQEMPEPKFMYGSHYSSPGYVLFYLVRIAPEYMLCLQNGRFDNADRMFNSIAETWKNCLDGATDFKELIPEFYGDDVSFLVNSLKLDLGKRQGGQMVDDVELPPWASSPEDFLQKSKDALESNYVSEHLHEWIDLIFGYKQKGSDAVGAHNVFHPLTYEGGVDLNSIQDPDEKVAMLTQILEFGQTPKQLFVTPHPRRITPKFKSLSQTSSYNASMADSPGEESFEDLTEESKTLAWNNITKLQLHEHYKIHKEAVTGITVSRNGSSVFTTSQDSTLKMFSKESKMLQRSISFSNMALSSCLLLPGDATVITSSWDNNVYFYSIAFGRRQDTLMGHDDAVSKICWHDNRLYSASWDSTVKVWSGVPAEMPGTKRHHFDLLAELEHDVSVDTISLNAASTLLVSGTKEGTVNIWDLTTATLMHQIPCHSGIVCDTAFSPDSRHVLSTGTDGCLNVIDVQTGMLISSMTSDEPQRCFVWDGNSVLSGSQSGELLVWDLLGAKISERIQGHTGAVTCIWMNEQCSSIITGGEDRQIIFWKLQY
UniProt Q96DE0: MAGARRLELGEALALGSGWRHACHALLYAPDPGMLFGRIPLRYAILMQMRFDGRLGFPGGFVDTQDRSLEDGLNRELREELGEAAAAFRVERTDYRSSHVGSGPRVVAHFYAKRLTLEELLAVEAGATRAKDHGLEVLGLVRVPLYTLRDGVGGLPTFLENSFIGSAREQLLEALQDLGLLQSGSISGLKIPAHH
UniProt Q9BXD5: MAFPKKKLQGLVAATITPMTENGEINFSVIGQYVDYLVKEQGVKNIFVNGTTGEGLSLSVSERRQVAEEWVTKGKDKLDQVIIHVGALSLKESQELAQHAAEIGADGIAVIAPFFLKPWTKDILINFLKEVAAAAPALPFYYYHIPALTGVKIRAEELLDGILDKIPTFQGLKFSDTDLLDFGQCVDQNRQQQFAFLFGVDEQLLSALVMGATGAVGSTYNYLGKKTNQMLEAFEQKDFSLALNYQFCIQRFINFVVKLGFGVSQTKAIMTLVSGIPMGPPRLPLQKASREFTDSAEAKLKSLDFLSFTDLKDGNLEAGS
UniProt P16083: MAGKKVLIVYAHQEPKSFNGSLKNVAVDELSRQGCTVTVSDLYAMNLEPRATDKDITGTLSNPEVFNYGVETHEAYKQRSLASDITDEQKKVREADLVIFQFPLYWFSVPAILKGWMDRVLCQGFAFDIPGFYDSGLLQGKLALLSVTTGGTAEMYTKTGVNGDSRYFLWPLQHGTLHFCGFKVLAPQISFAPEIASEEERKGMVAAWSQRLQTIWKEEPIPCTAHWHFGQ
UniProt Q8WV74: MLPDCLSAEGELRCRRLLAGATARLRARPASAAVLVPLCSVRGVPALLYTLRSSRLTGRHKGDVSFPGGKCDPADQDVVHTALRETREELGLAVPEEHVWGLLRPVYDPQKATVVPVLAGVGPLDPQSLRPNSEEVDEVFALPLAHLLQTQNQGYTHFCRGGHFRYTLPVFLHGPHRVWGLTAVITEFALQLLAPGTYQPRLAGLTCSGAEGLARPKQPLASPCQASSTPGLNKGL
UniProt Q9H7Z3: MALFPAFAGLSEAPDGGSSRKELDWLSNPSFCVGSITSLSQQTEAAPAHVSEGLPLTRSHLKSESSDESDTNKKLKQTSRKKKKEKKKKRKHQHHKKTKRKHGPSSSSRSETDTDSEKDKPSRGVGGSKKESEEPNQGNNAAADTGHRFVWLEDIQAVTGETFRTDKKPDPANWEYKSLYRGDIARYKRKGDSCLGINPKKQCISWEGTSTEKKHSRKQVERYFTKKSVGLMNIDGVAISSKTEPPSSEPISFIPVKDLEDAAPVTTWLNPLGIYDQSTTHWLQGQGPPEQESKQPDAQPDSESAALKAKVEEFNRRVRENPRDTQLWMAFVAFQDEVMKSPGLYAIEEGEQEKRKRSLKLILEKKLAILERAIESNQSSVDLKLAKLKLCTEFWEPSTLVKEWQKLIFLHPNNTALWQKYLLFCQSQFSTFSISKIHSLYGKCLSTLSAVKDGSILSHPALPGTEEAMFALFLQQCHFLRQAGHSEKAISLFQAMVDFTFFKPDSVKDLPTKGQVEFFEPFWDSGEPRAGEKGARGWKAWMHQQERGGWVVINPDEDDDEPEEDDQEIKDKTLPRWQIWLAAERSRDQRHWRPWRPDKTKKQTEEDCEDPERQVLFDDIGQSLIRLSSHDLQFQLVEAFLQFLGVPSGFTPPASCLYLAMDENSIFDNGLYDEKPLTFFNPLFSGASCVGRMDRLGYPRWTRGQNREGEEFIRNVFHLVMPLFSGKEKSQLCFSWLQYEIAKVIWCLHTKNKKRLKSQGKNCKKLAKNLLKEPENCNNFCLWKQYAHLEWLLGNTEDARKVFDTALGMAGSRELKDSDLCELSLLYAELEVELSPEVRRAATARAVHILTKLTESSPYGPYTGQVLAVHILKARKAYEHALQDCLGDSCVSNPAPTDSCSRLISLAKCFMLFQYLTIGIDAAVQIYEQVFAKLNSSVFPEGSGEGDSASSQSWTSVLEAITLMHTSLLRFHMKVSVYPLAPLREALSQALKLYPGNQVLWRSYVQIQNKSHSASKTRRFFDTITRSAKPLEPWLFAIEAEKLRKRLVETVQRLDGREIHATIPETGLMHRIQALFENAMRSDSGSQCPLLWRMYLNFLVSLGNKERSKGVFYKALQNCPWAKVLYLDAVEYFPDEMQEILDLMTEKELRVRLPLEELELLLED
UniProt O96028: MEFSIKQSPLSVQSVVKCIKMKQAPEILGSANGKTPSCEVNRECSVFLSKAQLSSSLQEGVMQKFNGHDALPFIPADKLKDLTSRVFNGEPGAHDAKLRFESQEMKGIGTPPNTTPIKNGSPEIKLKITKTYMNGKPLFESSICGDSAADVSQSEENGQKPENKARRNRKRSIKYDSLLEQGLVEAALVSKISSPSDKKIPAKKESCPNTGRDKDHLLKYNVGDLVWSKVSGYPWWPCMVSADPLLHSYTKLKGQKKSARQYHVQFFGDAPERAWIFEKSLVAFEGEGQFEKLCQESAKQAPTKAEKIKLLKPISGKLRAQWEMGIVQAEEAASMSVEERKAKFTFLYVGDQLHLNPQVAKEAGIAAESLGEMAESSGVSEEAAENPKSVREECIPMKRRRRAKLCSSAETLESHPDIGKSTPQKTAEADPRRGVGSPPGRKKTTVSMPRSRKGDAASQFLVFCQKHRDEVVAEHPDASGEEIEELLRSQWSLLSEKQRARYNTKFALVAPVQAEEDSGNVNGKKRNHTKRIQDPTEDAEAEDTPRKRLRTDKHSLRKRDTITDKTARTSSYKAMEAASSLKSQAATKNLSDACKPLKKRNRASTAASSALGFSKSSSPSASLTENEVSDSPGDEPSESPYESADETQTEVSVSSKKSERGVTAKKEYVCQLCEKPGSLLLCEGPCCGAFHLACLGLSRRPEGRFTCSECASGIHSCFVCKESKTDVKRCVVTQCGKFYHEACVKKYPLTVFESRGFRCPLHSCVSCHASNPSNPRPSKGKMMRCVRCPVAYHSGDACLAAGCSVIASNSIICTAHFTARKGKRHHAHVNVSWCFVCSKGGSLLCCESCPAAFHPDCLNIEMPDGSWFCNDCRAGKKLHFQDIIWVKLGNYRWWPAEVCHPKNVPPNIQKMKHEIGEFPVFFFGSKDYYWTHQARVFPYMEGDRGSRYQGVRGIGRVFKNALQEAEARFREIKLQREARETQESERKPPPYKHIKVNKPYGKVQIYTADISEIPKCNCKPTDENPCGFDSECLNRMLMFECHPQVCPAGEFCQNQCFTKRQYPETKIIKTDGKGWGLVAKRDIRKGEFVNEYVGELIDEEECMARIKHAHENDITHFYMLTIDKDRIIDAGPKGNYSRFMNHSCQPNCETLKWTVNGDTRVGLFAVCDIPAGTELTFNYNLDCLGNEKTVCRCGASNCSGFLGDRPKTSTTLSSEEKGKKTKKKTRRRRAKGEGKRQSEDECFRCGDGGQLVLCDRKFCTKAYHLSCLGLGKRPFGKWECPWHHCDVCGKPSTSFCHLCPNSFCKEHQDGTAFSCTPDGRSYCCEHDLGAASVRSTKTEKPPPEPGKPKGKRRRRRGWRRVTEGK
UniProt P24468: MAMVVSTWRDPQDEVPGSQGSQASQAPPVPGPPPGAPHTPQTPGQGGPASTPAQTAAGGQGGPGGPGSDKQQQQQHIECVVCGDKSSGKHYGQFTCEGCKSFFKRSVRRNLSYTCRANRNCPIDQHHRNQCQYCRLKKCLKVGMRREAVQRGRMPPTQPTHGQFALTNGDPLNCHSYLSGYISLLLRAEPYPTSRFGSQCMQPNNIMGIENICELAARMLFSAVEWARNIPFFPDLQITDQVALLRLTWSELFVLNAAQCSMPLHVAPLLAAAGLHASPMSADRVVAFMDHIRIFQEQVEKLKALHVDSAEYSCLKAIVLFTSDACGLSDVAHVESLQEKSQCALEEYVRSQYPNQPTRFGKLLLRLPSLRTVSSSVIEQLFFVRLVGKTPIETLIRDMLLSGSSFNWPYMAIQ

Columns and labels:
Assay in all cases: log2 fold change, soluble protein after heating vs DMSO (PISA); higher = thermal stabilisation; K562 lysate, 10 uM; active = over 0.2 and 3.5 SD of the protein, either way, in both replicates (recomputed)
[1] = compound: CS(=O)(=O)CCNCc1ccc(-c2ccc3ncnc(Nc4ccc(OCc5cccc(F)c5)c(Cl)c4)c3c2)o1 [lapatinib]
Outline: (§1)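 Values give the log-two fold change in thermal stability against solvent controls, from duplicates. Crude K562 extract at 1 mg/mL protein, made by dounce homogenisation in PBS pH 7.4 with 1 mM MgCl2, was treated with 10 μM compound for 30 min. After 3 min heating across 48°C-58°C, aliquots were pooled, adjusted to 0.5% NP-40 at 4°C and centrifuged at 21,000xg for 90 min. The supernatant was measured by TMTpro 16plex LC-MS/MS with channel sums equalised.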

[2] = compound: CS(=O)(=O)N1CCN(Cc2cc3nc(-c4cccc5[nH]ncc45)nc(N4CCOCC4)c3s2)CC1 [pictilisib]
Outline: as §1

[3] = compound: C[C@@H](Oc1cc(-c2cnn(C3CCNCC3)c2)cnc1N)c1c(Cl)ccc(F)c1Cl [crizotinib]
Outline: as §1

[4] = compound: C[C@H](C1=CC=C(C=C1)C(=O)NC2=C3C=CNC3=NC=C2)N
Outline: as §1

[5] = compound: C[C@H](Nc1ncnc2nc[nH]c12)c1cc2cccc(Cl)c2c(=O)n1-c1ccccc1 [duvelisib]
Outline: as §1

[6] = compound: Cc1cc(Nc2cc(CN3CCOCC3)c3nc(C)c(Cc4ccc(Cl)cc4F)n3n2)n[nH]1 [gandotinib]
Outline: as §1

[7] = compound: Cc1cc(Nc2cc(N3CCN(C)CC3)nc(Sc3ccc(NC(=O)C4CC4)cc3)n2)n[nH]1 [tozasertib]
Outline: as §1

[8] = compound: Cc1ccc(-n2nc(C(C)(C)C)cc2NC(=O)Nc2ccc(OCCN3CCOCC3)c3ccccc23)cc1 [doramapimod]
Outline: as §1

[9] = compound: Cc1ccc(NC(=O)c2ccc(CN3CC[C@H](N(C)C)C3)c(C(F)(F)F)c2)cc1Nc1nccc(-c2cncnc2)n1 [bafetinib]
Outline: as §1

[10] = compound: Cc1cccc(CC(=O)N2CCc3c2ccc(-c2cn(C)c4ncnc(N)c24)c3F)n1
Outline: as §1

Measured: log2 fold change

NSMAF (UniProt Q92636)
inactive: [1] 0.019 | [2] -0.053 | [3] -0.102 | [4] -0.05 | [5] 0.057 | [6] -0.017 | [7] 0.021 | [8] 0.023 | [9] -0.02 | [10] -0.001

NUDT16 (UniProt Q96DE0)
inactive: [1] -0.002 | [2] -0.042 | [3] 0.001 | [4] 0.005 | [5] 0.017 | [6] 0.021 | [7] 0.038 | [8] -0.003 | [9] -0.018 | [10] 0

NPL (UniProt Q9BXD5)
inactive: [1] 0.001 | [2] -0.043 | [4] -0.305 | [5] 0.123 | [6] 0.136 | [7] -0.023 | [9] -0.038 | [10] 0.222

Two neighbouring records from above, for reference:
NUDT16 (UniProt Q96DE0)
inactive: [1] -0.002 | [2] -0.042 | [3] 0.001 | [4] 0.005 | [5] 0.017 | [6] 0.021 | [7] 0.038 | [8] -0.003 | [9] -0.018 | [10] 0

NPL (UniProt Q9BXD5)
inactive: [1] 0.001 | [2] -0.043 | [4] -0.305 | [5] 0.123 | [6] 0.136 | [7] -0.023 | [9] -0.038 | [10] 0.222

(cont.)

NQO2 (UniProt P16083)
inactive: [1] 0.026 | [2] -0.023 | [3] 0.091 | [4] 0.007 | [5] -0.009 | [6] 0.01 | [7] 0.012 | [8] 0.022 | [9] 0.017 | [10] -0.008

NUDT8 (UniProt Q8WV74)
inactive: [1] 0.136 | [3] 0.015 | [4] -0.215 | [5] 0.029 | [6] 0.07 | [7] 0.149 | [8] 0.033 | [10] 0.07

NT5C (UniProt J3KSX6)
inactive: [1] -0.066 | [2] 0.134 | [9] 0.07

NRDE2 (UniProt Q9H7Z3)
inactive: [1] 0.046 | [2] -0.014 | [5] 0 | [9] 0.034

NSD2 (UniProt O96028)
inactive: [1] 0.022 | [2] 0.086 | [3] -0.141 | [4] -0.177 | [6] 0.077 | [7] -0.041 | [8] -0.095 | [9] -0.037 | [10] 0.093

NR2F2 (UniProt P24468)
inactive: [1] 0.06 | [2] 0.072 | [3] -0.022 | [4] -0.163 | [5] -0.046 | [6] -0.153 | [8] -0.005 | [9] 0.037 | [10] -0.023
